For at least one compound, name, drawing or mass did not settle the structure.
System: SecCell expression in HEK-3019
Test: DOX-controlled capsule rupture and SEAP release (HEK-3019 co-encapsulated with CHO-SEAP18)
Format: cell-based, human
Conditions: 2 ng/ml and 20 ng/ml DOX, 6 days; full repression of SecCell expression

With `C[C@H]1c2cccc(O)c2C(=O)C2=C(O)[C@]3(O)C(=O)C(C(N)=O)=C(O)[C@@H](N(C)C)[C@@H]3[C@@H](O)[C@@H]21` [DOX, doxycycline] as the compound, how does the “SEAP readings in the supernatant” value read?
The value was “dropped to background levels”.

Reference: patent publication US8506950B2, “Degradable microcapsules” (ETH Zurich, priority 2008, dated 2013)
